# This is one part of the list.
# System: T1, CTL2-GFP (C. trachomatis L2/434/Bu, GFP-expressing)
# T1 construct: L2/434/Bu, GFP-expressing
# Set-up: species or system HeLa; Intracellular C. trachomatis growth in HeLa cells, bulk GFP fluorescence relative to DMSO
# Conditions: bulk GFP, single well; 28.5 h, 10 µM; inhibitor
row,SMILES,% of control remaining
1,CC/C(=C\c1sc2ccc3ccccc3c2[n+]1CCCS(=O)[O-])SC [CBK264941],112.393%
2,O=C(CSc1ccc2nnc(-c3cccc(F)c3)n2n1)Nc1nccs1 [CBK287522],149.736%
3,CCC(c1nc2ccccc2c(=O)n1CCCn1ccnc1)N1C(=O)c2ccccc2C1=O (stereo not drawn) [CBK268560],107.359%
4,CC(=O)[C@H]1CC[C@H]2[C@@H]3CC[C@H]4CC5(CC[C@]4(C)[C@H]3CC[C@]12C)N=C1C=C(C(C)(C)C)ON1C1C=CCC15 (stereo partly drawn) [CBK303246],51.3466%
5,CN(C)c1nc2c(c(=O)[nH]c(=O)n2C)n1Cc1cccc2ccccc12 [CBK140560],143.967%
6,Cc1ccc(Cl)cc1N1CCN(CC(O)COCc2ccc3c(c2)OCO3)CC1 (stereo not drawn) [CBK278308C],86.2653%
7,CN(Cc1c(C2CCNCC2)[nH]c2ncccc12)C1CCCCC1 [CBK285079],129.949%
8,CCNC(=O)N1Cc2nc[nH]c2C[C@H]1C(=O)NCc1ccc(C#N)cc1 [CBK288975],142.073%
9,O=S(=O)(NCc1ccccc1)c1ccc(Cl)cc1 [CBK086159],104.139%
10,Cc1ccc(-c2nn(CCC#N)cc2C(=O)N2CCCCC2)cc1C [CBK306131],155.533%
11,CCOc1cccc(-c2cn3ccnc3c(N3CCN(CCO)CC3)n2)c1 [CBK066612],190.327%
12,O=C(NCCc1c[nH]c2ccccc12)c1ccc(-c2ccco2)nc1N1CCN(C(=O)c2ccco2)CC1 [CBK076217],100%
13,CC(=O)N1CCC[C@H]2NC(=O)CNC(=O)C3(C/C=C/C[C@H]21)CCN(c1ncccn1)CC3 [CBK292042],93.5237%
14,Cn1c(SCC(=O)Nc2ccc(F)cc2)nnc1-c1cccnc1 [CBK267035],159.806%
15,O=C(NCc1ccccn1)c1ncoc1-c1ccc(F)cc1 [CBK282352],112.351%
16,CC(C)N(Cc1nc(-c2ccc(Cl)cc2)no1)C(=O)COc1ccc(Br)cc1Cl [CBK267126],108.557%
17,CCOc1cc(/C=c2/sc3nc(=O)c(Cc4ccccc4)nn3c2=O)ccc1OC(C)=O [CBK077455],100%
18,O=C(COc1ccccc1)Nc1cccc(N2CCNCC2)c1 [CBK028271T],116.227%
19,CCN(CC(=O)Nc1ccc2c(c1)OCCO2)S(=O)(=O)c1ccsc1C(=O)O [CBK296717],128.461%
20,Cc1cc(C)n(CC(C)C(=O)Nc2cccnc2)n1 (stereo not drawn) [CBK307573],132.233%
21,Cc1cc(CN2CCN(S(=O)(=O)c3ccc(C(=O)c4ccccc4)cc3)CC2)cc(C)c1O [CBK062933],105.69%
22,COc1ccccc1/C=C/CN(C)CCN(C)C [CBK261888],100%
23,C#CCNC(=O)[C@@H]1Cc2cn(Cc3c(C)noc3C)c3cccc(c23)[C@H](CC(C)C)N1 [CBK289425],159.997%
24,Fc1ccccc1COc1ccccc1CNCCN1CCOCC1 [CBK278222C],160.291%

row,SMILES,% of control remaining
1,Nc1nc(CSc2nnc(-c3ccco3)n2-c2ccccc2)cs1 [CBK269693],92.1515%
2,COc1cc(/C=C/C(=O)NCc2ccc(C(=O)O)cc2)ccc1O [CBK286728],132.934%
3,CC(=O)Nc1ccc(S(=O)(=O)N2CCN(S(=O)(=O)c3ccc(C)cc3)CC2)cc1 [CBK264276],134.467%
4,O=S(=O)(Nc1ccc(N2CCNCC2)c2ccccc12)c1ccc(Br)cc1F [CBK200014C],72.7626%
5,Cc1ccc(C(=O)O)cc1NC(=O)c1cccc(C(=O)Nc2cc(C(=O)O)ccc2C)c1 [CBK262797],100%
6,CSc1ncc(Cl)c(C(=O)Nc2nc(-c3ccc(S(=O)(=O)N4CCOCC4)cc3)cs2)n1 [CBK269064],116.175%
7,Cc1ccc(C=C(c2ccccc2)c2nc3sc(C(=O)O)c(C)c3c(=O)[nH]2)s1 [CBK295638],145.121%
8,CCC(C(=O)O)c1ccc(-n2sc3ccccc3c2=O)cc1 (stereo not drawn) [CBK011773],85.147%
9,O=C(CSc1ccc2ccccc2c1)Nc1ccc(Cl)c(C(=O)O)c1 [CBK268239],117.888%
10,O=C(CSc1cccc2c(SCC(=O)c3ccccc3)cccc12)c1ccccc1 [CBK261255],100%
11,O=C(CCc1ccc(S(=O)(=O)NC2CCCCC2)cc1)Nc1ccc2c(c1)OCCO2 [CBK266845],152.443%
12,COc1ncc(-c2nccnc2N2CCCC2CO)c(OC)n1 (stereo not drawn) [CBK036638],113.49%
13,c1cnc(N2CCN(Cc3ccc4c(c3)OCO4)CC2)c(OC2CCCCC2)n1 [CBK082833T],105.816%
14,Brc1cn2ccnc2c(Nc2ccc3[nH]ccc3c2)n1 [CBK037449],99.8018%
15,CCOc1oc2cc(O)ccc2c1C(=O)CSC1CCCCC1 [CBK022262],95.9098%
16,CS(=O)(=O)c1ccc(-c2ccc(OCC3CCN(C(=O)c4cccc(C#N)c4)CC3)nc2)cc1 [CBK162283],98.9259%
17,CCCc1nn(CC(=O)OC)c(=O)c2cc3ccsc3n12 [CBK284144],108.775%
18,O=C(O)C1C2C=CC(O2)C1C(=O)Nc1ccc(S(=O)(=O)N2CCc3ccccc32)cc1 (stereo not drawn) [CBK268176],113.711%
19,CC(NC(=O)C1CCN(CCN2C(=O)c3ccccc3C2=O)CC1)c1ccc(F)cc1 (stereo not drawn) [CBK148750],110.115%
20,O=C(CC(NC(=O)c1ccccc1)c1ccccc1)Nc1cccc2ccccc12 (stereo not drawn) [CBK263901],119.758%
21,COc1ccc(C(=O)Nc2ccc(N3CCN(C(=O)C(C)(C)C)CC3)cc2)cc1 [CBK270266],115.369%
22,CCC(=O)N1CCN(CCNC=C2C(=O)CC(c3cccs3)CC2=O)CC1 (stereo not drawn) [CBK264817],117.89%
23,CN1CCC(=NNC(=O)CN(c2ccc(Oc3ccccc3)cc2)S(C)(=O)=O)CC1 [CBK262338],100%
24,CC(C)N1CCCC(CNC(=O)C2Cc3cc(Cl)ccc3O2)C1 (stereo not drawn) [CBK282686],115.264%

# Four entries from above, sorted by formula weight, descending:
row,SMILES,% of control remaining
4,CC(=O)[C@H]1CC[C@H]2[C@@H]3CC[C@H]4CC5(CC[C@]4(C)[C@H]3CC[C@]12C)N=C1C=C(C(C)(C)C)ON1C1C=CCC15 (stereo partly drawn) [CBK303246],51.3466%
18,O=C(O)C1C2C=CC(O2)C1C(=O)Nc1ccc(S(=O)(=O)N2CCc3ccccc32)cc1 (stereo not drawn) [CBK268176],113.711%
14,Cn1c(SCC(=O)Nc2ccc(F)cc2)nnc1-c1cccnc1 [CBK267035],159.806%
8,CCC(C(=O)O)c1ccc(-n2sc3ccccc3c2=O)cc1 (stereo not drawn) [CBK011773],85.147%

# From paper PMC12040169 (PLOS Biology, 2025)
